Reference: the supplement of paper PMC10849652
Some of the results follow.

Protein sequences, listed by entry. Tags and fused reporters are not part of them. Lines headed by an entry give the natural chain unless they say otherwise; changes in a name come on top.
UniProt Q5VW38: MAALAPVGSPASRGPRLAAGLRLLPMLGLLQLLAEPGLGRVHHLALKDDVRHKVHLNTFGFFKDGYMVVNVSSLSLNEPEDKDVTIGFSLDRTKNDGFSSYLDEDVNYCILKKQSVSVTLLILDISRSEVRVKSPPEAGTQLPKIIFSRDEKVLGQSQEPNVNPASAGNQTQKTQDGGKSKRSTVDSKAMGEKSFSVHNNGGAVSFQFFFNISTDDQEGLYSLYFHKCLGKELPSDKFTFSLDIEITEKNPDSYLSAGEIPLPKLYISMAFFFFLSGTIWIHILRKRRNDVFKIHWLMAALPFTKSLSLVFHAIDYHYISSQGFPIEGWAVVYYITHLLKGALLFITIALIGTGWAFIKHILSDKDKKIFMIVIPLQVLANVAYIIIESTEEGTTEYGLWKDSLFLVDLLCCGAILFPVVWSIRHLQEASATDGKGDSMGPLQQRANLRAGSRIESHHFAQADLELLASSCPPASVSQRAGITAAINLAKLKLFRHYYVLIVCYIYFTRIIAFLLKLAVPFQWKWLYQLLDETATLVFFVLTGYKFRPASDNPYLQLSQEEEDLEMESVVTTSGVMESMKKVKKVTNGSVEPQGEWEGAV
UniProt P36959: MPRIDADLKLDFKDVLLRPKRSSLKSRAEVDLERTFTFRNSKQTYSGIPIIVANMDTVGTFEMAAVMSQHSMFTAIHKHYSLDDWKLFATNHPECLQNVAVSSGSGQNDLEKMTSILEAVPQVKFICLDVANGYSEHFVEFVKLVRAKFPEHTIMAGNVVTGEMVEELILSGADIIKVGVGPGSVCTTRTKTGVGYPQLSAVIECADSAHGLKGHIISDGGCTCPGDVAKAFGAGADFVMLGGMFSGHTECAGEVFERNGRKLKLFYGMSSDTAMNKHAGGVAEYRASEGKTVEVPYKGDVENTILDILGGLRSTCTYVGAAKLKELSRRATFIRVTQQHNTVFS
UniProt Q8IW92: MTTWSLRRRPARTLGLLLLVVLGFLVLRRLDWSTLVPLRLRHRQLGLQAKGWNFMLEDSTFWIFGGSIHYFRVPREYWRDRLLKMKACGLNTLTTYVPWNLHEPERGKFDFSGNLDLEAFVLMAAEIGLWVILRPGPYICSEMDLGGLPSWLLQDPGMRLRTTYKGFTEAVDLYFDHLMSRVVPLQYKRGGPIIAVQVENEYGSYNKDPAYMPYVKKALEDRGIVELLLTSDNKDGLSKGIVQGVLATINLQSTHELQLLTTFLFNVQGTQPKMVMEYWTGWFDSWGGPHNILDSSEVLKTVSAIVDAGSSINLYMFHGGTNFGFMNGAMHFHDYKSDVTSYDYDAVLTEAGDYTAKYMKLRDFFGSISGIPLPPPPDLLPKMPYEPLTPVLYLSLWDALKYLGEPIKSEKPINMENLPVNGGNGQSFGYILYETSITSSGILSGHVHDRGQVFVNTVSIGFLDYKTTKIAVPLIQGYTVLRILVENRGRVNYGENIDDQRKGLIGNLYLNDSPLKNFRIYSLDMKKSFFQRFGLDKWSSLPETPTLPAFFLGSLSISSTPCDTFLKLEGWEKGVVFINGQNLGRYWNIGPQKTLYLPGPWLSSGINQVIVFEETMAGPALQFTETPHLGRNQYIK
UniProt O00461: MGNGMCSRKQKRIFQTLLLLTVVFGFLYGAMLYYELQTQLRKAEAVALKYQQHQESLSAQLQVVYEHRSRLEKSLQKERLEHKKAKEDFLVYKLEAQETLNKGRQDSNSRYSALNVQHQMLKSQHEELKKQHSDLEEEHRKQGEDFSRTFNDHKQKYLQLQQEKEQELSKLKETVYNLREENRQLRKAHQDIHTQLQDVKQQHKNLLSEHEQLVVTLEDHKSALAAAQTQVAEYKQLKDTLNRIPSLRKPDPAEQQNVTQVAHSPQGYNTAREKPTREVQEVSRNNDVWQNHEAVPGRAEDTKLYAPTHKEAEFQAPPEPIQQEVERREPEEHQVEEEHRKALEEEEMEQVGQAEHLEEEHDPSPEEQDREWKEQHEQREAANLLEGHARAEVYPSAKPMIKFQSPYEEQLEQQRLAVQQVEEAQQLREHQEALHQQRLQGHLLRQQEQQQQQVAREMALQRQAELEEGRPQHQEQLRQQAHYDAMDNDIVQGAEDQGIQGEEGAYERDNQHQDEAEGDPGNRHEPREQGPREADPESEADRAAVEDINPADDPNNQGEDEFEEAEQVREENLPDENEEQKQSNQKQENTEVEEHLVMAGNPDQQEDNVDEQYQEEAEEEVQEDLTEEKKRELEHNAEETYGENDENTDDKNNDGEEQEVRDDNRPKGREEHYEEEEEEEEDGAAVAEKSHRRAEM
UniProt Q08379: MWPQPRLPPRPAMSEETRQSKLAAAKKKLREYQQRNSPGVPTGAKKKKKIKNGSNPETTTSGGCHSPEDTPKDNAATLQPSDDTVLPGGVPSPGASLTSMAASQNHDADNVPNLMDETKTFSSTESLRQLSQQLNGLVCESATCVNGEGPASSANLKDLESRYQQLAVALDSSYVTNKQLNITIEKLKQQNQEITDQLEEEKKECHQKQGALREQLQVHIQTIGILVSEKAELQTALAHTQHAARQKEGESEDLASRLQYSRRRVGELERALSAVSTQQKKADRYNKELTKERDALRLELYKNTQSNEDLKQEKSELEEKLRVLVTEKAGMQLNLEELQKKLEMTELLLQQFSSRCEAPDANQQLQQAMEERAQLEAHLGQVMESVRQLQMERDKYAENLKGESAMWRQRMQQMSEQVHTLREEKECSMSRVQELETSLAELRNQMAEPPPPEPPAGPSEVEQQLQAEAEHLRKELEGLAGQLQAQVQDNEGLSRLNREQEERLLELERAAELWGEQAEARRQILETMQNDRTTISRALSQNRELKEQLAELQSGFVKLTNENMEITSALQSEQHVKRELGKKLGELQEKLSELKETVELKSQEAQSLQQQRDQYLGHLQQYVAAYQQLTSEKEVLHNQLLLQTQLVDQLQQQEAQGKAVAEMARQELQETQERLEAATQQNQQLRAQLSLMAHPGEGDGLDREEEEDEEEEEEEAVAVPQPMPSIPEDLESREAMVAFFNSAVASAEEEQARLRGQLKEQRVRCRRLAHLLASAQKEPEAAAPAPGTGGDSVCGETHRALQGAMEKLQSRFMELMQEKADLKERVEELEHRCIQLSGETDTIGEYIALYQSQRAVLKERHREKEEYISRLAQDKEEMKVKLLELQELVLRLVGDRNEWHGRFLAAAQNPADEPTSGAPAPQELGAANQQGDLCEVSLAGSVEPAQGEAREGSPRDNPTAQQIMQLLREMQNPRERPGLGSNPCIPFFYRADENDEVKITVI
UniProt P13224: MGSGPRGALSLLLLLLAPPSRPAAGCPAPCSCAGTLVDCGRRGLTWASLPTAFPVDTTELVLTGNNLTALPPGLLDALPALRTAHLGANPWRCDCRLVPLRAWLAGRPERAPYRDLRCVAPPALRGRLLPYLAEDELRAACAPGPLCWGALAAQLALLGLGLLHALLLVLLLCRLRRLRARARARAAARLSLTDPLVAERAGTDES
UniProt P46926: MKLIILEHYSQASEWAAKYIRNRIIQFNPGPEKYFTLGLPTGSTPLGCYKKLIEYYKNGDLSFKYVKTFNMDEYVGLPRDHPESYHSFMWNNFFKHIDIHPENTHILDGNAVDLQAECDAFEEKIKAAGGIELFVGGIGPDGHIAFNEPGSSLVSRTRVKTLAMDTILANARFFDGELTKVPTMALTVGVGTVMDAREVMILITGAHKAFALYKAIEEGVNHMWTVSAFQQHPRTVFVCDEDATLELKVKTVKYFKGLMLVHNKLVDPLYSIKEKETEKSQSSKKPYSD
UniProt Q86UL3: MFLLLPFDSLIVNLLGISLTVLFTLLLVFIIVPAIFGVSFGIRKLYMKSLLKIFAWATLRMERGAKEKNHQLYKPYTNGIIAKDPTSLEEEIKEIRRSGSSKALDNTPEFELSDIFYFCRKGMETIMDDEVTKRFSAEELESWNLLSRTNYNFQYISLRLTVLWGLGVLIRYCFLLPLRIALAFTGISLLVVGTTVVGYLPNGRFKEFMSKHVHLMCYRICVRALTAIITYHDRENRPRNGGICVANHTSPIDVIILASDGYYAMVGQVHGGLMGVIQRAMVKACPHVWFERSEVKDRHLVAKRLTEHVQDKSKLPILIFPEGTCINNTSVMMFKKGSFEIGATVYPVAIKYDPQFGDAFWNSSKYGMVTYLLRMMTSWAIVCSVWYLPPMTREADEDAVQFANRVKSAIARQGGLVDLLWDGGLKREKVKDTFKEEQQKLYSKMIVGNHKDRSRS
UniProt Q8TBA6: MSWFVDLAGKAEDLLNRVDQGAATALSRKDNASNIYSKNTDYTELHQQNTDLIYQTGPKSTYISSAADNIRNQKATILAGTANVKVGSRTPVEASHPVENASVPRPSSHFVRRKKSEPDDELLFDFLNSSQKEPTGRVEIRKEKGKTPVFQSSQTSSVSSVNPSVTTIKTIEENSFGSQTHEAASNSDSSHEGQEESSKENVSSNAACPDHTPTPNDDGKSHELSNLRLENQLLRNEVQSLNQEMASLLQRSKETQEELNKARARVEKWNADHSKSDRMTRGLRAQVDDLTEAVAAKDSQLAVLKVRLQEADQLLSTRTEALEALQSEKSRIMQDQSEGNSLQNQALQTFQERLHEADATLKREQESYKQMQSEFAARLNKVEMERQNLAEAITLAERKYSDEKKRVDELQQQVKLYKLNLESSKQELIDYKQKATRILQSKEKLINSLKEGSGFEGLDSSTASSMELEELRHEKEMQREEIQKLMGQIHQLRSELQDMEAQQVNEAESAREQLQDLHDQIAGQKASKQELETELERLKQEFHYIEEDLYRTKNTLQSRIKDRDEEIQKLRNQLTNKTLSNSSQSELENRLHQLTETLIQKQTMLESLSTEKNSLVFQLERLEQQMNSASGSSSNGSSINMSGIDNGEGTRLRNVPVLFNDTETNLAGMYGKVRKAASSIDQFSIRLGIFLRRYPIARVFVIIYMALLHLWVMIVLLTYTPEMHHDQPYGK
UniProt O94925: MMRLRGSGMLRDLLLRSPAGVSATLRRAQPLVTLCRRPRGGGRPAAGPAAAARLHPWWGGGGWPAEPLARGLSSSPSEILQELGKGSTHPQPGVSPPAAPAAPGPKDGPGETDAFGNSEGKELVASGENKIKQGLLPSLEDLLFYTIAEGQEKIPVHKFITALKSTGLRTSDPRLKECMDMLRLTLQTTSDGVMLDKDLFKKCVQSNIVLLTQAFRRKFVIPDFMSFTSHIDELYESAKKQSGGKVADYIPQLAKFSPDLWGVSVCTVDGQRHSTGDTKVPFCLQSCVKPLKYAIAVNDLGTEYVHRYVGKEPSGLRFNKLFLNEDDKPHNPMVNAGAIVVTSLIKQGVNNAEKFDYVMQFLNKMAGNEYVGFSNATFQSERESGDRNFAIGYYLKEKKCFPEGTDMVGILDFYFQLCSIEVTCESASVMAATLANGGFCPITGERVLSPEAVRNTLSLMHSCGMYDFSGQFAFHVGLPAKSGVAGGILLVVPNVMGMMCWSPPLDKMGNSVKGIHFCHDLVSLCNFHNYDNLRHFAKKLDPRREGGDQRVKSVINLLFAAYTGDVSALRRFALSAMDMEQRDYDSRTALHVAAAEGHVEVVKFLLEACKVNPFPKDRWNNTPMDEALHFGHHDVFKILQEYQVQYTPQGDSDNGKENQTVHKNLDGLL
UniProt Q9BXV9: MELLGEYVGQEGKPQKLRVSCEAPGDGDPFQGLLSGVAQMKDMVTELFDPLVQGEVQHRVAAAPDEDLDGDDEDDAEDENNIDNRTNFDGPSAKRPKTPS
UniProt Q9NWU2, whole entry, looked up: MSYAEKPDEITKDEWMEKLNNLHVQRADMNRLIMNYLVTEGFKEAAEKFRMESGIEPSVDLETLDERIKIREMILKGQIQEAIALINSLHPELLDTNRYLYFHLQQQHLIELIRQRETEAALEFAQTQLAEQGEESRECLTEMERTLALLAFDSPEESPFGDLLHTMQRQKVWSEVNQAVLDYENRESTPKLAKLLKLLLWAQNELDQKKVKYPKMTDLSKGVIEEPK
UniProt Q14691: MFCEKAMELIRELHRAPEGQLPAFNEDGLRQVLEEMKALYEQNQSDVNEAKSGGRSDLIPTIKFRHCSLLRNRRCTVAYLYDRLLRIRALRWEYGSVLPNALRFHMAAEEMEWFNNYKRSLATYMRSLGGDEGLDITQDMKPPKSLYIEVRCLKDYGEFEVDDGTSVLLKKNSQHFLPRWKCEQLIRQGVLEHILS
UniProt P17174: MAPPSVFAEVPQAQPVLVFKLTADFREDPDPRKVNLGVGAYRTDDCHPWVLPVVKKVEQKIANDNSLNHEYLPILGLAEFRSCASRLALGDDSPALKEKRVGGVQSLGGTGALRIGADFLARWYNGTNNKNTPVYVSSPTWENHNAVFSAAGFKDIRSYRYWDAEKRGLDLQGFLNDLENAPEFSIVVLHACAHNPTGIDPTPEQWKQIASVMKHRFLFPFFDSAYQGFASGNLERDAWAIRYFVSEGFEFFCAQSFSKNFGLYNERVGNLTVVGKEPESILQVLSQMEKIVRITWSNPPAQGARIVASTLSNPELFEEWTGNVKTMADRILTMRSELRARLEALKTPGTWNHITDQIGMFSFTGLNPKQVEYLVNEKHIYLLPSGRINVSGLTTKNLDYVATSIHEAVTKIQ

How the values were obtained:
Assay in all cases: log2 fold change, soluble protein after heating vs DMSO (PISA); higher = thermal stabilisation; K562 cells, 10 uM, 30 min; active = over 0.2 and 3.5 SD of the protein, either way, in both replicates (recomputed)
[1] = compound: CC[C@@H]1C(=O)N(C)c2cnc(Nc3ccc(C(=O)NC4CCN(C)CC4)cc3OC)nc2N1C1CCCC1
Summary of the method: (§1)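 Values are thermal stability changes relative to control samples and are taken from duplicates. They are stated as log2 fold changes. Before quantification by TMTpro 16plex LC-MS/MS with equalised channel sums, K562 cells at 2×10^6 cells/mL were treated with 10 μM compound for 30 min, heated in aliquots for 3 min across 48°C-58°C, pooled, extracted in PBS with 0.5% NP-40 at 4°C, and centrifuged at 21,000xg for 90 min to give the soluble supernatant.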

volasertib = compound: CC[C@@H]1C(=O)N(C)c2cnc(Nc3ccc(C(=O)N[C@H]4CC[C@H](N5CCN(CC6CC6)CC5)CC4)cc3OC)nc2N1C(C)C [volasertib]
Summary of the method: as §1

[2] = compound: CC[C@H](C)N1C=C(C2=C(C=C(C=C21)C3=CN=C(C=C3)N4CCNCC4)C(=O)NCC5=C(C=C(NC5=O)C)C)C
Summary of the method: as §1

epoxomicin = compound: CC[C@H](C)[C@@H](C(=O)N[C@@H]([C@@H](C)O)C(=O)N[C@@H](CC(C)C)C(=O)[C@]1(CO1)C)NC(=O)[C@H]([C@@H](C)CC)N(C)C(=O)C [epoxomicin]
Summary of the method: as §1

[3] = compound: CCn1c(C(=O)N(C2CC2)C2CC2)cc2c3c(ncn3C)c(Nc3cc(C)n(C)n3)nc21
Summary of the method: as §1

[4] = compound: CCn1cc(-c2ccnc3[nH]c(-c4cccc(CN(C)C)c4)cc23)c(-c2ccc(NC(=O)N(C)C)cc2)n1
Summary of the method: as §1

[5] = compound: CN(C)CC(=O)Nc1ccc2[nH]c(=O)c3ccccc3c2c1
Summary of the method: as §1

rosiglitazone = compound: CN(CCOC1=CC=C(C=C1)C[C@H]2C(=O)NC(=O)S2)C3=CC=CC=N3 (racemic) [rosiglitazone]
Summary of the method: as §1

[6] = compound: CN1C2=C(C3=C1C(=O)N(N=C3)CC4=CC(=CC=C4)N)SC(=C2)S(=O)C
Summary of the method: as §1

[7] = compound: CN1CCC(CNc2ccc3ncc(-c4cccc(OC(F)(F)F)c4)n3n2)CC1
Summary of the method: as §1

Target | log2 fold change [1] | log2 fold change (volasertib) | log2 fold change [2] | log2 fold change (epoxomicin) | log2 fold change [3] | log2 fold change [4] | log2 fold change [5] | log2 fold change (rosiglitazone) | log2 fold change [6] | log2 fold change [7]
GOLGA7 (UniProt Q7Z5G4) | inactive: 0.022 | inactive: 0.136 | inactive: -0.055 | inactive: 0.047 | inactive: 0.015 | inactive: -0.06 | inactive: -0.01 | inactive: 0.022 | inactive: 0.029 | inactive: 0.167
GPALPP1 (UniProt Q8IXQ4) | inactive: 0.056 | inactive: 0.068 | inactive: -0.024 | inactive: -0.02 | inactive: -0.015 | inactive: -0.038 | inactive: -0.032 | inactive: 0.006 | inactive: -0.09 | inactive: -0.061
GPR107 (UniProt Q5VW38) | inactive: 0.095 | inactive: 0.043 | inactive: -0.012 | inactive: -0.005 | inactive: -0.047 | inactive: 0.016 | inactive: -0.038 | inactive: 0.052 | inactive: -0.025 | inactive: 0.017
GMPR (UniProt P36959) | inactive: 0.06 | inactive: 0.019 | inactive: -0.036 | inactive: -0.002 | inactive: 0.045 | inactive: -0.078 | inactive: 0.03 | inactive: 0.004 | inactive: -0.055 | inactive: 0.003
GM2A (UniProt P17900) | inactive: 0.067 | inactive: -0.064 | inactive: 0.011 | inactive: 0.228 | inactive: 0.007 | inactive: -0.03 | inactive: 0.106 | inactive: -0.012 | inactive: 0.056 | inactive: -0.02
GLB1L2 (UniProt Q8IW92) | inactive: 0.02 | inactive: -0.041 | inactive: 0.057 | inactive: -0.145 | inactive: 0.043 | inactive: 0.011 | inactive: 0.055 | inactive: 0.025 | inactive: -0.075 | inactive: -0.044
GOLGA3 (UniProt Q08378) | inactive: -0.009 | inactive: -0.001 | inactive: 0.028 | inactive: -0.001 | inactive: -0.027 | inactive: -0.005 | inactive: 0.04 | inactive: 0.014 | inactive: -0.042 | inactive: 0.071
GOLIM4 (UniProt O00461) | inactive: -0.169 | inactive: -0.215 | inactive: -0.013 | inactive: 0.005 | inactive: 0.054 | inactive: 0.008 | inactive: -0.019 | inactive: 0.01 | inactive: -0.048 | inactive: -0.08
GOLGA2 (UniProt Q08379) | inactive: 0.051 | inactive: -0.157 | inactive: 0.03 | inactive: -0.098 | inactive: 0.01 | inactive: 0.038 | inactive: -0.011 | inactive: 0.023 | inactive: 0.177 | inactive: 0.032
GNPDA2 (UniProt Q8TDQ7) | inactive: 0.037 | inactive: 0.171 | inactive: -0.004 | inactive: -0.103 | inactive: 0.033 | inactive: -0.024 | inactive: -0.042 | inactive: 0 | inactive: -0.092 | inactive: -0.009
GPHN isoform 2 (UniProt Q9NQX3) | inactive: -0.022 | inactive: 0.045 | inactive: -0.034 | inactive: 0.009 | inactive: 0.011 | inactive: -0.019 | inactive: -0.002 | inactive: -0.015 | inactive: -0.033 | inactive: -0.029
GMDS (UniProt O60547) | inactive: 0.045 | inactive: 0.017 | inactive: -0.041 | inactive: 0 | inactive: 0.029 | inactive: 0.002 | inactive: -0.015 | inactive: 0.011 | inactive: -0.071 | inactive: -0.051
GP1BB isoform 2 (UniProt P13224) | inactive: -0.111 | inactive: -0.075 | inactive: -0.034 | inactive: -0.042 | inactive: 0.021 | inactive: -0.007 | inactive: -0.007 | inactive: 0.035 | inactive: 0.01 | inactive: -0.164
GNPDA1 (UniProt P46926) | inactive: 0.052 | inactive: 0.056 | inactive: -0.048 | inactive: -0.025 | inactive: 0.024 | inactive: 0.003 | inactive: -0.021 | inactive: -0.002 | inactive: -0.069 | inactive: -0.055
GNB4 (UniProt Q9HAV0) | inactive: 0.138 | inactive: 0.224 | inactive: -0.102 | inactive: -0.07 | inactive: -0.089 | inactive: -0.076 | inactive: -0.008 | inactive: -0.064 | inactive: 0.008 | inactive: 0.215
GPAT3 (UniProt Q53EU6) | inactive: 0.015 | inactive: -0.13 | inactive: 0.034 | inactive: 0.023 | inactive: 0.047 | – | inactive: 0.008 | inactive: 0.032 | inactive: -0.001 | –
GPAT4 (UniProt Q86UL3) | inactive: -0.042 | inactive: -0.046 | inactive: -0.036 | inactive: 0.063 | – | inactive: -0.039 | inactive: 0.029 | – | inactive: -0.063 | inactive: 0.143
GRIPAP1 (UniProt Q4V328) | inactive: -0.031 | inactive: -0.236 | inactive: 0.093 | inactive: -0.039 | inactive: -0.016 | inactive: 0.017 | inactive: -0.022 | inactive: 0.018 | inactive: 0.044 | inactive: 0.044
GMPPB isoform 2 (UniProt Q9Y5P6) | inactive: 0.026 | inactive: 0.01 | inactive: -0.002 | inactive: -0.022 | inactive: 0.002 | inactive: -0.066 | inactive: 0.002 | inactive: 0.035 | inactive: -0.106 | inactive: -0.031
GOLGA5 (UniProt Q8TBA6) | inactive: 0.019 | inactive: -0.08 | inactive: -0.099 | inactive: 0.021 | inactive: -0.022 | inactive: -0.022 | inactive: 0.005 | inactive: 0.014 | inactive: -0.023 | inactive: 0.107
GLRX2 isoform 2 (UniProt Q9NS18) | inactive: -0.015 | inactive: 0.112 | inactive: 0.03 | inactive: 0.067 | inactive: 0.099 | inactive: -0.04 | inactive: -0.035 | inactive: 0.011 | inactive: -0.037 | inactive: 0.016
GNPTAB (UniProt Q3T906) | inactive: 0.095 | inactive: 0.092 | inactive: -0.036 | inactive: 0.01 | inactive: 0.033 | inactive: 0.045 | inactive: -0.025 | inactive: 0.061 | inactive: 0.053 | inactive: 0.073
GLS isoform 3 (UniProt O94925) | inactive: -0.172 | active: -0.699 | inactive: 0.126 | inactive: 0.152 | – | inactive: -0.055 | inactive: 0.069 | – | inactive: -0.039 | inactive: -0.364
GON7 (UniProt Q9BXV9) | inactive: 0.032 | inactive: 0.036 | inactive: -0.056 | inactive: 0.069 | inactive: -0.09 | inactive: 0.057 | inactive: 0.024 | inactive: 0.019 | inactive: 0.013 | inactive: 0.104
GID8 (UniProt Q9NWU2) | inactive: -0.071 | inactive: -0.113 | inactive: -0.004 | inactive: -0.033 | inactive: 0.01 | inactive: 0.186 | inactive: -0.002 | inactive: -0.01 | inactive: -0.003 | inactive: 0.011
GMNN (UniProt O75496) | inactive: 0.055 | inactive: 0.094 | inactive: 0.008 | inactive: 0.044 | inactive: 0.007 | inactive: 0.019 | inactive: -0.038 | inactive: -0.006 | inactive: -0.051 | inactive: -0.012
GINS1 (UniProt Q14691) | inactive: 0.005 | inactive: -0.02 | inactive: 0.047 | inactive: 0.051 | inactive: 0.02 | inactive: -0.071 | inactive: -0.01 | inactive: 0.007 | inactive: -0.036 | inactive: 0.017
GLRX5 (UniProt Q86SX6) | inactive: -0.04 | inactive: -0.039 | inactive: -0.048 | inactive: 0.059 | inactive: 0.034 | – | inactive: 0.099 | inactive: -0.016 | inactive: -0.045 | –
GNA13 (UniProt Q14344) | inactive: 0.075 | inactive: 0.062 | inactive: 0.002 | inactive: -0.001 | inactive: -0.021 | inactive: 0.003 | inactive: 0.022 | inactive: 0.028 | inactive: -0.098 | inactive: 0.049
GOT1 (UniProt P17174) | inactive: 0.024 | inactive: 0.071 | inactive: -0.033 | inactive: 0.041 | inactive: 0.02 | inactive: 0.01 | inactive: -0.011 | inactive: 0.002 | inactive: -0.052 | inactive: -0.035

Given with tabs: entries from further up.
Target	log2 fold change [1]	log2 fold change (volasertib)	log2 fold change [2]	log2 fold change (epoxomicin)	log2 fold change [3]	log2 fold change [4]	log2 fold change [5]	log2 fold change (rosiglitazone)	log2 fold change [6]	log2 fold change [7]
GPR107 (UniProt Q5VW38)	inactive: 0.095	inactive: 0.043	inactive: -0.012	inactive: -0.005	inactive: -0.047	inactive: 0.016	inactive: -0.038	inactive: 0.052	inactive: -0.025	inactive: 0.017
GMPR (UniProt P36959)	inactive: 0.06	inactive: 0.019	inactive: -0.036	inactive: -0.002	inactive: 0.045	inactive: -0.078	inactive: 0.03	inactive: 0.004	inactive: -0.055	inactive: 0.003
